The values below come from publication PMC11936014.

The chains behind the UniProt entries cited, without tags or fusion partners. Residues count along the entry.
UniProt Q9NZQ7, 19-290: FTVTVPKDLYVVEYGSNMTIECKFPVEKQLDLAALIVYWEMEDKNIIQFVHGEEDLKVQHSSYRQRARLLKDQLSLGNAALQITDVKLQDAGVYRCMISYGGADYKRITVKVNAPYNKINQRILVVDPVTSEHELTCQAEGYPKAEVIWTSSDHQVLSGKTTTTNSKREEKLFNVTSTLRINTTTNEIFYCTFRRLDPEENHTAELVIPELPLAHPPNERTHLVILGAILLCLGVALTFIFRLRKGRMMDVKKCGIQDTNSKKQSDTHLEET

Construct, isoform or probe ends are uncertain for at least one entry. Where cells or extracts were used, other partners may take part.

The target in this series is PD-L1 (UniProt Q9NZQ7). The series can be described thus: competition with a labelled probe. The following applies: EJ cells preincubated with 2.5 uM unlabelled aptamer, prevents PD-L1-GEMs binding (flow cytometry); Cell binding buffer with 0.1 mg/mL tRNA, 1 mg/mL BSA, 10% FBS; on ice 1 h; PBS washes; pH not stated; protein on the cell surface; label: none (unlabelled competitor); single-stranded DNA. (A flow cytometer gives signals particle by particle.)

Regarding “TTTACAGGTTCTGGGGGGTGGGTGGGGAACCTGTTTT [PD-L1 aptamer]”, the binding result is “binds”.
